Laboratory results reported in PMC7819943, “Rice protein-binding microarrays: a tool to detect cis-acting elements near promoter regions in rice”.
Some of the results follow.

Amino acid sequences for entries named in this document (tags omitted).
UniProt Q0JBA9, entry or part of it: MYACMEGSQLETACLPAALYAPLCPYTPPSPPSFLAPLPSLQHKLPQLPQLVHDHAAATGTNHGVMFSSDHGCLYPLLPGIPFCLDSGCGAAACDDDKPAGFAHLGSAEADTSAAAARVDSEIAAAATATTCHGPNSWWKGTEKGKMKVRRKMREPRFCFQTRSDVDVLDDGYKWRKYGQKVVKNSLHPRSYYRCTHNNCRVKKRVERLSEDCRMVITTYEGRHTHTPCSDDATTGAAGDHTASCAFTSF

molecular target: OsWRKY34 (Oryza sativa, UniProt Q0JBA9 1-250); assay: protein-binding microarray (RPBM); PBS, 2% BSA, 51.3 ng/ul salmon testes DNA, 50 uM zinc acetate, 200 nM TF, 25 C, 1 h; high values mean tight binding; conditions: protein: recombinant; tags: N-terminal polyhistidine and DsRed monomer fusion (pET32a); label: CyDye5-dUTP incorporated in the synthesized complementary strand; 3' TTTTT single-stranded linker to array surface; dsDNA, one strand shown
Summary of the method: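 A custom Agilent array was converted to double-stranded form by primer extension with Cy5-dUTP and blocked with 2% BSA. Protein at 200 nM in PBS with 2% BSA, salmon testes DNA and 50 µM zinc acetate was applied for 1 h at 25 °C, followed by washing. The proteins were polyhistidine–DsRed N-terminal fusions of transcription factors, expressed in E. coli BL21-CodonPlus and Ni–NTA-purified. The binding signal is per-feature fluorescence intensity (arbitrary units) from an Axon 4000B scanner.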

Sequence | binding signal
TTGCACTGTGTCGCCGGCGCGTCGCAGATCCTATCATTCCCGGAGTCACCTAGTGCAG | 8110 fluorescence intensity (a.u.)
CTTCTTCCTACGTTCTATCGCTTCTCCGCCGCCGCCGCCGCGGAGTCACCTAGTGCAG | 8440 fluorescence intensity (a.u.)
AATGGATATCAGGATATGAAGCTCAAAGTTATCGGTTATTCGGAGTCACCTAGTGCAG | 8240 fluorescence intensity (a.u.)
GTGTGATCTCCATATTAGCCTTCTTACTACCCAACCCTCACGGAGTCACCTAGTGCAG | 8100 fluorescence intensity (a.u.)
CTTATTTGTTTACTATGGTAGTTTGTCACTCCTGTCAATTCGGAGTCACCTAGTGCAG | 9670 fluorescence intensity (a.u.)
CTGCTCCTACCACTCACTAATCCGTAGCTTCACCGGATCCCGGAGTCACCTAGTGCAG | 8110 fluorescence intensity (a.u.)
GCCGCATCTCTTCTCTCTCTACTCTCCCACCCTCCACCTCCGGAGTCACCTAGTGCAG | 8160 fluorescence intensity (a.u.)
TCGCTTACACACAAATACACACCTCTCCCTTTCTTCTTCCCGGAGTCACCTAGTGCAG | 9260 fluorescence intensity (a.u.)
TCTCGTCCTTCTGTGGCCGGGAGGGGCGCGGTTTCTGCCGCGGAGTCACCTAGTGCAG | 9030 fluorescence intensity (a.u.)
GTCATCCTCTCCATCCCCTCGTCGTCGTCCGCTCGCCTCTCGGAGTCACCTAGTGCAG | 8250 fluorescence intensity (a.u.)
CTGTATGTGCTCCGTCTGTTTTACTGTTCCGTCACGTGTCCGGAGTCACCTAGTGCAG | 9770 fluorescence intensity (a.u.)
AGTGGAGTACTATTTTCCCATTTCATCCAACCATTGCATTCGGAGTCACCTAGTGCAG | 9030 fluorescence intensity (a.u.)
CTGTTTCTTTGTTGCGCATTGAATCGATCTAGGTTAGTACCGGAGTCACCTAGTGCAG | 12700 fluorescence intensity (a.u.)
ATACATGTGGTTTCATACAACTTTTACCATAAAATATGATCGGAGTCACCTAGTGCAG | 8350 fluorescence intensity (a.u.)
TGCAATCCTCTGTTTTAAACTTACATTCTTGTCATAATTCCGGAGTCACCTAGTGCAG | 8360 fluorescence intensity (a.u.)
AAAGTGTATTTGTATTCTGTTTTTTTCACCCTTTGTATATCGGAGTCACCTAGTGCAG | 8590 fluorescence intensity (a.u.)
CCTCCCTCCTTTCTCGCGCCCGCGCCTCCTGAAACTGGGACGGAGTCACCTAGTGCAG | 8470 fluorescence intensity (a.u.)
ATTCTTTTTCTTTTCTTCTTTCTTCCTTATTCTTTTCTCCCGGAGTCACCTAGTGCAG | 10100 fluorescence intensity (a.u.)
GATTACATTTCAATTCAATTTCAATCCCATTCACTTTTGCCGGAGTCACCTAGTGCAG | 8710 fluorescence intensity (a.u.)
CACTACCTGCGCGCTCGCTCCACCCCGCGCCCTAATCTCCCGGAGTCACCTAGTGCAG | 8720 fluorescence intensity (a.u.)
GCTCTCGCTGACGCTGCCGCTCCGCCTGCCTCCGCCCGCGCGGAGTCACCTAGTGCAG | 10600 fluorescence intensity (a.u.)

Sequence | binding signal
GCCTGTGTTACTTACTACTCGACCCTTGCCTTGACGTCAACGGAGTCACCTAGTGCAG | 13200 fluorescence intensity (a.u.)
TCTCTTCTCTTCTTCCGCGACACGTCTTCGCCGCCGCCGCCGGAGTCACCTAGTGCAG | 8440 fluorescence intensity (a.u.)
GGTAATTGATCGATCCTTGACTTCTTAATGCATATTATTGCGGAGTCACCTAGTGCAG | 9030 fluorescence intensity (a.u.)
ATTCCTCCGCCACAACACCACGCTGACCACAGTCCACCGTCGGAGTCACCTAGTGCAG | 8360 fluorescence intensity (a.u.)
TATTCCTTTCATTGGGTTTGTGCGGGATGGCTGGTTGGTGCGGAGTCACCTAGTGCAG | 18100 fluorescence intensity (a.u.)
GTTTCAAAATATTTGACACCGTTGACTTTTTAGTACGTGTCGGAGTCACCTAGTGCAG | 19100 fluorescence intensity (a.u.)
AGGAGCGGGGAGAGTGTCGCGGTGTTGTCAGGGTGAGGGGCGGAGTCACCTAGTGCAG | 12100 fluorescence intensity (a.u.)
TCCATCTTCTTTGTCTATGTTAGCACCGATTTCAGTCAGCCGGAGTCACCTAGTGCAG | 12600 fluorescence intensity (a.u.)
CCGCACCCTGGCCCTCTTGGTCTTCAATTCTTGGTTAGCACGGAGTCACCTAGTGCAG | 8270 fluorescence intensity (a.u.)
ATGCAGTGTGATTTTAGGTGATTACTACTCCATTCTTGCTCGGAGTCACCTAGTGCAG | 10200 fluorescence intensity (a.u.)
GCCTTTTCTCTGTCTATTTCAGCACCTCATCGATTTTTTTCGGAGTCACCTAGTGCAG | 15800 fluorescence intensity (a.u.)
GGATTGGTCATTATTTTTTTTTTCTGCTGTTGGGATGATCCGGAGTCACCTAGTGCAG | 8530 fluorescence intensity (a.u.)
CTCTCTCTCTACTCTTCTCTTCTCTCTCCTTTTGTTGCTTCGGAGTCACCTAGTGCAG | 11000 fluorescence intensity (a.u.)
ATGTCAACTTTCTCATTTTCTTTTTCTTTCCACAGTGTGACGGAGTCACCTAGTGCAG | 10500 fluorescence intensity (a.u.)
TTATGGCCTGCTGTGCTTTGCTTGGGATGGGTTTCTTCGGCGGAGTCACCTAGTGCAG | 13400 fluorescence intensity (a.u.)
GTACATGCCCCATACCCATTATCCTCTTGTTTTTGTCTCCCGGAGTCACCTAGTGCAG | 8560 fluorescence intensity (a.u.)
GGCGACTGATTTGCTGGCATGCGTAATTTTTGGCCGGTGACGGAGTCACCTAGTGCAG | 9720 fluorescence intensity (a.u.)
CTACATCTTGGACGACCGCGTCTTCTTTCCTCCATGCATGCGGAGTCACCTAGTGCAG | 9960 fluorescence intensity (a.u.)
CCACTTCACTTGGGCTCTTGTACATGCCTCCTTTCATCAACGGAGTCACCTAGTGCAG | 12100 fluorescence intensity (a.u.)
ATTCTAAGTCCCTGTCACATCGGATGTTTGGCACTAATTTCGGAGTCACCTAGTGCAG | 8490 fluorescence intensity (a.u.)
GTTTGCATTAGCTTCATTTCGGTTGTAATCCCAGAGTTTGCGGAGTCACCTAGTGCAG | 8220 fluorescence intensity (a.u.)

Sequence | binding signal
CCACTTGACTCTCTCCACTCGCCTTCGCTTTCCACTTCTACGGAGTCACCTAGTGCAG | 12900 fluorescence intensity (a.u.)
AATCAGTCCGACAAATTTCCTGTGGTTTTTCAATCCCTTTCGGAGTCACCTAGTGCAG | 10500 fluorescence intensity (a.u.)
CCGGAGGAGGAGGGGAGGGTGCGGCCGGCGGCCCTTGCCGCGGAGTCACCTAGTGCAG | 9840 fluorescence intensity (a.u.)
CATACGGTAATTTTCTGGTTTGTTTTTGCACTATATATTTCGGAGTCACCTAGTGCAG | 12100 fluorescence intensity (a.u.)
GTCAAACATGTGCTAAAAAGTCAACGGTGTCAAACATTTCCGGAGTCACCTAGTGCAG | 17400 fluorescence intensity (a.u.)
TTTTGGATTCTTTGGGCTGTTGCAATTTCACTTGTTTTCGCGGAGTCACCTAGTGCAG | 9130 fluorescence intensity (a.u.)
TAACCGATTTCAGAATATGTTTATGCTCCACTTTTGTTTTCGGAGTCACCTAGTGCAG | 8530 fluorescence intensity (a.u.)
TTTTTTGCTCCCGCAATTTTTTTCTGTTTTCTTTTTTTTGCGGAGTCACCTAGTGCAG | 10100 fluorescence intensity (a.u.)
ACTCCACTTAGGCTGCATTCGTTCTAGATACATTGAGTTACGGAGTCACCTAGTGCAG | 9970 fluorescence intensity (a.u.)
GGGCCCACCTTGAAAGATCACGTGTCACCCGCGCCATCTACGGAGTCACCTAGTGCAG | 9400 fluorescence intensity (a.u.)
CTTTTCCTGTTATATTTTTCCTTACTGTTACTACGGTATCCGGAGTCACCTAGTGCAG | 9930 fluorescence intensity (a.u.)
CTGTTCATCTATTTAATTAAGGATGCAATCTACCTGTCCACGGAGTCACCTAGTGCAG | 8080 fluorescence intensity (a.u.)
TCAGGTTATAAGACTTTCTAGCATTGCCCGCATTCATATACGGAGTCACCTAGTGCAG | 8040 fluorescence intensity (a.u.)
CGCTTTTTAAACTACTACACGGTGTATTTTTTTGCAAAAACGGAGTCACCTAGTGCAG | 8620 fluorescence intensity (a.u.)
AGATTATGCCAGCCCAATATCACATCGTAGCCCAATACAACGGAGTCACCTAGTGCAG | 8280 fluorescence intensity (a.u.)
TGCTCCATGACAAGTACGGCGAGTTTATTTAATTTTCTCACGGAGTCACCTAGTGCAG | 8080 fluorescence intensity (a.u.)
CGACGCCACCGCCTGTATGTCCACATGCTCCACCGTCGCCCGGAGTCACCTAGTGCAG | 10100 fluorescence intensity (a.u.)
ATTTCAATCTAGCTGACATCATCACTTCATCTTATTTGACCGGAGTCACCTAGTGCAG | 8880 fluorescence intensity (a.u.)
AGTATCCCGCATGATATCTGACCACCACGGACATCGTCTTCGGAGTCACCTAGTGCAG | 12800 fluorescence intensity (a.u.)
AATAGTCGTACGTTGTCGTCAATTCGCCCATGGTTTTGATCGGAGTCACCTAGTGCAG | 8460 fluorescence intensity (a.u.)
ATCTCGAGTTCCTTTTTTTTTCTCTCCTGAAGGAGTAGAACGGAGTCACCTAGTGCAG | 8060 fluorescence intensity (a.u.)

Sequence | binding signal
TATACTTCCTGCATCCCTAAATGTTTGACGCTGTTGACTTCGGAGTCACCTAGTGCAG | 10900 fluorescence intensity (a.u.)
AAATGCTTCCATGCCTTCGTTTGATCGCTGCAATGACCCTCGGAGTCACCTAGTGCAG | 8520 fluorescence intensity (a.u.)
TCTTTCCTCATTTATTTACTTGTTACATCAATTTTCATCGCGGAGTCACCTAGTGCAG | 10100 fluorescence intensity (a.u.)
GGCGTGGTGCTATGTTTGGTGATCATTTTGCCAGTCTGTCCGGAGTCACCTAGTGCAG | 9180 fluorescence intensity (a.u.)
CCTCCGTCGACCCACCCGTGCCGTTCTCTTCGCCGTCATGCGGAGTCACCTAGTGCAG | 10000 fluorescence intensity (a.u.)
CCCTCATCCAGCCATTGTTACTGTGCCCGCGCTCCCGCGCCGGAGTCACCTAGTGCAG | 10200 fluorescence intensity (a.u.)
GAGCCCTACGTCGCCGCCCACAACGTGATACTCTCCCACGCGGAGTCACCTAGTGCAG | 9940 fluorescence intensity (a.u.)
CATTTGCGCATTTCCTCTTCTATTACCCGCATTGTTCAACCGGAGTCACCTAGTGCAG | 13100 fluorescence intensity (a.u.)
CGTATATCCGATGTGACACGCCAAAACTTTACACCCATGTCGGAGTCACCTAGTGCAG | 8030 fluorescence intensity (a.u.)
TCCGCCAGAAAACTACGTGACGAATTTATTAATCCTATTTCGGAGTCACCTAGTGCAG | 8570 fluorescence intensity (a.u.)
TTTGGGATAAATCATGAGGGGTTAAAAGTTGTTATATTTTCGGAGTCACCTAGTGCAG | 10100 fluorescence intensity (a.u.)
TAGTTAGTCATAAGGTGGTTCAGTTTGGGAGGGCTGATACCGGAGTCACCTAGTGCAG | 8040 fluorescence intensity (a.u.)
CTATAACATCGCATGACACTATTTGCTTTATTTATTTATTCGGAGTCACCTAGTGCAG | 9020 fluorescence intensity (a.u.)
CTGAGGTCCCTTAACTTATCTACGAATCCGATTTTCGTCCCGGAGTCACCTAGTGCAG | 9300 fluorescence intensity (a.u.)
GTTATTCAAAACTATAGTTATCTTCCGCCTATTTTTTTATCGGAGTCACCTAGTGCAG | 10600 fluorescence intensity (a.u.)
TTCCGTTCTTGAATATTGATCTTTCGTTTTTCTTTCCTAGCGGAGTCACCTAGTGCAG | 8770 fluorescence intensity (a.u.)
GGACCTGTAAATTGCACATTTGTACATCCAACTGAGCACACGGAGTCACCTAGTGCAG | 8270 fluorescence intensity (a.u.)
CTCTATGCAGAATGTTTGTGTCCTTTCACCCATCTCTTTGCGGAGTCACCTAGTGCAG | 8740 fluorescence intensity (a.u.)
GTCCAATCCCTTACCGTTGATTGGCCACGTGGCTAAAACTCGGAGTCACCTAGTGCAG | 10700 fluorescence intensity (a.u.)
CTTACCGTGCAAATTGAATTTTGTTACTGTTTGGTACTTCCGGAGTCACCTAGTGCAG | 9000 fluorescence intensity (a.u.)
GGGGCTCGCTCTATTTTCTTCTGTATGAATTATGCTTGTCCGGAGTCACCTAGTGCAG | 9340 fluorescence intensity (a.u.)

Part of the list above in another layout.
TCAGGTTATAAGACTTTCTAGCATTGCCCGCATTCATATACGGAGTCACCTAGTGCAG
  binding signal = 8040 fluorescence intensity (a.u.)
TTTGGGATAAATCATGAGGGGTTAAAAGTTGTTATATTTTCGGAGTCACCTAGTGCAG
  binding signal = 10100 fluorescence intensity (a.u.)
CTGAGGTCCCTTAACTTATCTACGAATCCGATTTTCGTCCCGGAGTCACCTAGTGCAG
  binding signal = 9300 fluorescence intensity (a.u.)
